From PMC3422239 come the findings set out here.

One assay concerns the target T1, GFP-IRS2-S556A (mouse) (UniProt P81122).
T1 sequence: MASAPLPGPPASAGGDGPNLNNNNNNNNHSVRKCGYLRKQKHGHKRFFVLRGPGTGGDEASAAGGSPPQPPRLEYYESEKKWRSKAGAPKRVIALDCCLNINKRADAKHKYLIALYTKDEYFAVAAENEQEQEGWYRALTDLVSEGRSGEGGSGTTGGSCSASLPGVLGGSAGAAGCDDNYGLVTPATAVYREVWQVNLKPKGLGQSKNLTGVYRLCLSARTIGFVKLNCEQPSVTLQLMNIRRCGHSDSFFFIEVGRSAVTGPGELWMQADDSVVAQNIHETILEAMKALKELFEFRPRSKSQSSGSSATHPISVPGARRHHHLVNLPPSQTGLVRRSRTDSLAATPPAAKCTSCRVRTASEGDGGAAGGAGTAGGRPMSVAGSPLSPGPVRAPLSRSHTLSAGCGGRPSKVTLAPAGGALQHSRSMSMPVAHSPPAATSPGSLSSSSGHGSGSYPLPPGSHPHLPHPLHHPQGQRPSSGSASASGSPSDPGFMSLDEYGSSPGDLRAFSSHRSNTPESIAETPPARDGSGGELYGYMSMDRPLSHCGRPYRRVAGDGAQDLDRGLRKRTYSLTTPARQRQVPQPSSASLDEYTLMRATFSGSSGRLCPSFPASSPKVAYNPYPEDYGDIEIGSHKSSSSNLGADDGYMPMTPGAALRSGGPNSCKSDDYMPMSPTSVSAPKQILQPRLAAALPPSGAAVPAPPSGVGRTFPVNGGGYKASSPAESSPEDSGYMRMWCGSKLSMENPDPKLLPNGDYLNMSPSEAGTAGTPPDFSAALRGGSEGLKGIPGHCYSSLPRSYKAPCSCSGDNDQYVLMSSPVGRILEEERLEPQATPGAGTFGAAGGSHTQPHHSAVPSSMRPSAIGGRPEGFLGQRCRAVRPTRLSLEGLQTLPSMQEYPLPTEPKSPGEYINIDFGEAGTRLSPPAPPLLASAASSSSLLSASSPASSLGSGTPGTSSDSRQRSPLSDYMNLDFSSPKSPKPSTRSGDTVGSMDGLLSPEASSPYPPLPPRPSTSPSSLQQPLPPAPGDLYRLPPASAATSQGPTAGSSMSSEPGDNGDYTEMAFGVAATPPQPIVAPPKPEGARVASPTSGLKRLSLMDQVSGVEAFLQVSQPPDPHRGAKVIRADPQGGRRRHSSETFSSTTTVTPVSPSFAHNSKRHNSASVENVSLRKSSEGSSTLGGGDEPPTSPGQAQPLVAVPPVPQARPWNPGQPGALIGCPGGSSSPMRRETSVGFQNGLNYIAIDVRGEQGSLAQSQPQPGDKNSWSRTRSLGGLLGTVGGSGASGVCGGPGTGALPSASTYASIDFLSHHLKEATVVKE
The experiment in a line: far-Western, overlay or dot blot; GFP-tagged IRS-2 pulled down with GFP-Trap from HEK293 or Flp-In HEK293 lysates, SDS-PAGE, nitrocellulose; membrane incubated overnight at 4°C with 14-3-3ζ-HRP, ECL; cells serum starved, IGF-1, or PI-103, wortmannin or Akti-1/2 before IGF-1; both purified.

Assay [1] addresses T2, GFP-IRS2-301-1321 (mouse) (UniProt P81122).
T2 sequence: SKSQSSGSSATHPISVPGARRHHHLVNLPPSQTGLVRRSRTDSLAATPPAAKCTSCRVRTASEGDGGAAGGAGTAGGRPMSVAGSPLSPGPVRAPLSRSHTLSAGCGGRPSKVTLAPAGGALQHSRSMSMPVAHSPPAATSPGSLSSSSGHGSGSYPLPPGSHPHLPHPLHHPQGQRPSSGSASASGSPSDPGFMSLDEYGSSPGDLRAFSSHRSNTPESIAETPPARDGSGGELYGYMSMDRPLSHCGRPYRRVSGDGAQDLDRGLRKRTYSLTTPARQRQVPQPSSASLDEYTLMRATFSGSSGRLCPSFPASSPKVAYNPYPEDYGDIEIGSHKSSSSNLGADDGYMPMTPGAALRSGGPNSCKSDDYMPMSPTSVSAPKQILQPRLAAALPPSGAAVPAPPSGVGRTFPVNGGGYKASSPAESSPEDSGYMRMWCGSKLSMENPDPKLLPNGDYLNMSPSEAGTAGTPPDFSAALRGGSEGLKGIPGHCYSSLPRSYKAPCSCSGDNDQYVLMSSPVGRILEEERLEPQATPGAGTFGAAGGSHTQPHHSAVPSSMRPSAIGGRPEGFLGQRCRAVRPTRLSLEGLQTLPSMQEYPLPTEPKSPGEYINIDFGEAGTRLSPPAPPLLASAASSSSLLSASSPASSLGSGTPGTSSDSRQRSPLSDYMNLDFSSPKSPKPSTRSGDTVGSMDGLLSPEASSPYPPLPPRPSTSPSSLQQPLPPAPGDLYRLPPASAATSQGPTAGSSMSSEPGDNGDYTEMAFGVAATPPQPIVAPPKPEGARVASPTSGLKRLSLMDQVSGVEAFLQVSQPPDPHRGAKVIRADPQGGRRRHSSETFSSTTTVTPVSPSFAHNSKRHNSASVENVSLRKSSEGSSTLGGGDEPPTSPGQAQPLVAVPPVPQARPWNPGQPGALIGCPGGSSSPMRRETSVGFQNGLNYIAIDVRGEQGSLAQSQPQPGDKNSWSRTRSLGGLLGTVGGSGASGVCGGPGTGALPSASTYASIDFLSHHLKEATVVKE
The description is as above.

These are yes or no findings as the source states them, for the method shown. A result given as binding can be weak or reduced; the word gives no strength. Tags and fused reporters may be left off the sequences shown.

With Recombinant human 14-3-3ζ-HRP, the binding entry (with GFP-IRS2-S556A (mouse); in assay [1]) was “binds” in each case.
